PubChem BioAssay AID1259254 | NCATS, 2017

Test: 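Genome-wide screen for genes that prevent DNA re-replication in cancer cells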 (primary screen)
System: human HCT116 colorectal cancer cells
Knock-down reagent: single siRNA against human genes
Timing: 3 days
Detection: 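Imaged Hoechst DNA stain sorts each cell into a cycle phase by DNA amount; per plate, G2 fraction set to 0% for non-targeting and 100% for GMNN siRNA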
Reading the numbers: G2 robust z-score and G2 cells, % of GMNN control: higher = more G2 cells, more excess DNA replication; raw share of cells in G2: higher = larger share of cells with G2 DNA content
Rule for the call: 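Active siRNAs have a G2 robust z of 5 or more median absolute deviations over the median, which in these data means about 38% or higher of GMNN control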
This is an unselected part of about 59,000 reagents tested. In the full data, about 1,550 (2.6%) are marked active. 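G2 share is only a proxy for re-replication; each gene was hit by three separate siRNAs, and active genes were retested.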 Raw values are not corrected between plates. The numbers tell different reagents against one gene apart. No sequences are given here. Not given: the amount of reagent.

Gene	reagent	G2 robust z-score	G2 cells, % of GMNN control	raw share of cells in G2 (%)	Outcome
ZXDB (zinc finger X-linked duplicated B)	1	0.296	5.05	4.92	inactive
ZXDB (zinc finger X-linked duplicated B)	2	-0.0896	2.34	3.9	inactive
ZXDB (zinc finger X-linked duplicated B)	3	0.55	6.84	5.92	inactive
SCGB1A1 (secretoglobin family 1A member 1)	1	0.67	7.68	8.54	inactive
SCGB1A1 (secretoglobin family 1A member 1)	2	-0.342	0.565	4.12	inactive
SCGB1A1 (secretoglobin family 1A member 1)	3	-0.514	-0.65	3.12	inactive
LOC642355 (nucleoside diphosphate kinase, mitochondrial-like)	1	0.244	4.69	5.19	inactive
LOC642355 (nucleoside diphosphate kinase, mitochondrial-like)	2	-0.135	2.02	3.81	inactive
LOC642355 (nucleoside diphosphate kinase, mitochondrial-like)	3	-0.124	2.09	4.43	inactive
LINC02913 (long independently transcribed non-coding RNA 2913)	1	0.351	5.44	5.79	inactive
LINC02913 (long independently transcribed non-coding RNA 2913)	2	0.916	9.41	7.25	inactive
LINC02913 (long independently transcribed non-coding RNA 2913)	3	-0.384	0.263	4.9	inactive
FGL2 (fibrinogen like 2)	1	1.48	13.4	11.7	inactive
FGL2 (fibrinogen like 2)	2	-0.903	-3.39	2.75	inactive
FGL2 (fibrinogen like 2)	3	0.0903	3.6	7.26	inactive
FOXN3-AS1 (FOXN3 antisense RNA 1)	1	1.77	15.4	8.63	inactive
FOXN3-AS1 (FOXN3 antisense RNA 1)	2	-0.328	0.658	3.26	inactive
FOXN3-AS1 (FOXN3 antisense RNA 1)	3	4.58	35.2	17.6	inactive
PNPO (pyridoxamine 5'-phosphate oxidase)	1	-0.342	0.563	6.68	inactive
PNPO (pyridoxamine 5'-phosphate oxidase)	2	1.74	15.2	9.88	inactive
PNPO (pyridoxamine 5'-phosphate oxidase)	3	1.44	13.1	9.79	inactive
PPHLN1 (periphilin 1)	1	0.0101	3.04	4.69	inactive
PPHLN1 (periphilin 1)	2	0.0517	3.33	5.67	inactive
PPHLN1 (periphilin 1)	3	-0.713	-2.05	2.51	inactive
MYH10 (myosin heavy chain 10)	1	-0.31	0.788	5.78	inactive
MYH10 (myosin heavy chain 10)	2	-1.05	-4.41	3.65	inactive
MYH10 (myosin heavy chain 10)	3	-0.567	-1.02	2.86	inactive
CYB5D2 (cytochrome b5 domain containing 2)	1	-0.579	-1.11	3.65	inactive
CYB5D2 (cytochrome b5 domain containing 2)	2	0.219	4.51	4.67	inactive
CYB5D2 (cytochrome b5 domain containing 2)	3	-0.369	0.368	1.93	inactive
OR8U3 (olfactory receptor family 8 subfamily U member 3)	1	-0.000967	2.96	4.65	inactive
OR8U3 (olfactory receptor family 8 subfamily U member 3)	2	2.43	20	9.99	inactive
OR8U3 (olfactory receptor family 8 subfamily U member 3)	3	-0.457	-0.25	3.11	inactive
PDXK (pyridoxal kinase)	1	1.81	15.7	10.5	inactive
PDXK (pyridoxal kinase)	2	0.828	8.79	8.39	inactive
PDXK (pyridoxal kinase)	3	1.66	14.6	8.37	inactive
GABRA2 (gamma-aminobutyric acid type A receptor subunit alpha2)	1	-0.223	1.4	5.8	inactive
GABRA2 (gamma-aminobutyric acid type A receptor subunit alpha2)	2	0.832	8.82	7.76	inactive
GABRA2 (gamma-aminobutyric acid type A receptor subunit alpha2)	3	0.484	6.37	6.86	inactive
PGAM1P4 (phosphoglycerate mutase 1 pseudogene 4)	1	3.1	24.8	12.8	inactive
PGAM1P4 (phosphoglycerate mutase 1 pseudogene 4)	2	0.581	7.05	6.32	inactive
PGAM1P4 (phosphoglycerate mutase 1 pseudogene 4)	3	-0.492	-0.496	4.59	inactive
IFT22 (intraflagellar transport 22)	1	1.21	11.5	5.73	inactive
IFT22 (intraflagellar transport 22)	2	-0.869	-3.15	3.21	inactive
IFT22 (intraflagellar transport 22)	3	-0.605	-1.29	4.03	inactive
HTATIP2 (HIV-1 Tat interactive protein 2)	1	2.39	19.7	14.3	inactive
HTATIP2 (HIV-1 Tat interactive protein 2)	2	1.23	11.6	8.79	inactive
HTATIP2 (HIV-1 Tat interactive protein 2)	3	-0.108	2.21	4.21	inactive
RGS19 (regulator of G protein signaling 19)	1	-0.506	-0.595	5.44	inactive
RGS19 (regulator of G protein signaling 19)	2	-0.522	-0.706	6.2	inactive
RGS19 (regulator of G protein signaling 19)	3	-1	-4.08	2.52	inactive
ZNF696 (zinc finger protein 696)	1	-0.404	0.122	2.83	inactive
ZNF696 (zinc finger protein 696)	2	-0.771	-2.46	4.8	inactive
ZNF696 (zinc finger protein 696)	3	-0.809	-2.72	2.78	inactive
RGS2 (regulator of G protein signaling 2)	1	0.604	7.21	7.46	inactive
RGS2 (regulator of G protein signaling 2)	2	0.14	3.95	5.46	inactive
RGS2 (regulator of G protein signaling 2)	3	2.97	23.8	13.8	inactive
PIBF1 (progesterone immunomodulatory binding factor 1)	1	-1.16	-5.21	2.97	inactive
PIBF1 (progesterone immunomodulatory binding factor 1)	2	-0.7	-1.96	3.13	inactive
PIBF1 (progesterone immunomodulatory binding factor 1)	3	0.79	8.52	6.51	inactive
WDR73 (WD repeat domain 73)	1	0.365	5.53	6.43	inactive
WDR73 (WD repeat domain 73)	2	-0.315	0.754	3.24	inactive
WDR73 (WD repeat domain 73)	3	-0.114	2.17	3.61	inactive
RB1 (RB transcriptional corepressor 1)	1	0.0818	3.54	5.32	inactive
RB1 (RB transcriptional corepressor 1)	2	0.901	9.31	8.18	inactive
RB1 (RB transcriptional corepressor 1)	3	-1.1	-4.77	2.86	inactive
PFDN5 (prefoldin subunit 5)	1	-0.713	-2.05	2.65	inactive
PFDN5 (prefoldin subunit 5)	2	2.37	19.7	14.1	inactive
PFDN5 (prefoldin subunit 5)	3	0.563	6.93	5.62	inactive
